# The campaign covered roughly 52,000 sequences. About 210 (0.4%) were called active.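 Rule for the calls: active = gene whose silencing raises cell survival under the drug, median off-target-corrected z-score across its silencing RNAs 2 or more; inactive = the rest.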 This is one part of the list.
# Experiment: Resistance to Poly (ADP-Ribose) Polymerase inhibitor: Gene Identification via Genome-wide siRNA Screen
# Settings: mouse BRCA2 R2336H ES cells, olaparib, CellTiter-Glo viability; stronger effect = higher value
# How it was run: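 Mouse BRCA2 R2336H ES cells were reverse-transfected with siRNA (20 nM final), treated at 48 h with 500 nM olaparib, and read by CellTiter-Glo after 72 h. Scores: MAD-based z per siRNA, median per gene, seed off-target correction.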
row,Sequence,z-score
1,GGACCAAAGUUCUAAGUUUTT against 4933430J11,inactive: 0.23
2,CGGUUUCUAAAAGAAUUGGTT against Syt14l,inactive: 0.039
3,GGCAUUUUACCAGCGAAGCTT against Klhl5,inactive: -1.28
4,GGCAUCUGCUUUUCAGAAATT against Ube2h,inactive: 0.552
5,GGAAGCAACCCAAGGAUAATT against Syt8,inactive: -0.769
6,GCUAAGCUACAUUUCCAAATT against Pycard,inactive: 0.387
7,GGAAGAGAUCCUAAUAAAGTT against AV216087,inactive: 0.635
8,GCUGCUUGUUAAGCUUUUUTT against Th1l,inactive: -1.66
9,GGAAGAGUGUAGGGCUUACTT against Htr1a,inactive: 0.474
10,GGGACAACACUCUUUUACUTT against Nab2,inactive: 0.278
11,GGCCAUUGAGUGCUCCUACTT against Dhcr7,inactive: -0.525
12,GCUGGACCUUCGAAGGUUUTT against Pltp,inactive: -0.759
13,GCGAGCAAGUGAAAACGCATT against Sumf1,inactive: 0.87
14,CCAUGUUACAUGAAAUAGUTT against Bhc80,inactive: 0.116
15,GGCCGAAAGAUAAAAACAGTT against Rad51l3,inactive: 1.08
16,GGAAUAACACCUCUGUCCCTT against Hspa12a,inactive: -0.185
17,GGAAUGUGAGCUUAUCAUATT against Tlr1,inactive: 1.66
18,GCUCCCAGUUCUCUUUCUUTT against Defb49,inactive: 0.673
19,GGCUGCUGGUCAGUUAUGATT against Glrb,inactive: 0.997
20,GGAAUCGUACUUCCACUAGTT against AI854703,inactive: 2.59
21,GGACUUGAAGAACUGUUAUTT against Stch,inactive: 0.603
22,GCGAAGUUACUACAGACGUTT against Slc39a1,inactive: 0.822
23,CCUUUAACCCUUUACACCUTT against E130012A19Rik,inactive: -0.141
24,GGAUGUAGGCAGUAGUAGCTT against 4931428F04Rik,inactive: 1.62
25,CCUUUGUCUUUGGUAAAUCTT against BC053917,inactive: -0.257
26,GGUUCAGCUCAUAUAUAAUTT against D630029K05Rik,inactive: -0.0583

row,Sequence,z-score
1,CCAAUUCAAUUAGACUAGATT against 9430015G10Rik,inactive: 0.926
2,GGAAAUCUUCAGAAAAAGATT against Gucy1a3,inactive: -1.61
3,GCUUCCUACAAUUAAUUCATT against Prkrir,inactive: 0.639
4,GGGCCUGAAAAGACCAUCATT against Olfr124,inactive: -0.735
5,CCUCAUUUCAACCAUUCACTT against Lyzl6,inactive: 0.136
6,GCAAUAAGGUAAAUGACUATT against C130058G22Rik,inactive: -0.162
7,GUUCACCGACAAGAGCUGCTT against LOC541307,inactive: -0.255
8,GGGCUAUGGCUCCUUUGUGTT against Rhpn1,inactive: 0.487
9,CUACUUCGAGAACAUGGGUTT against Gtrgeo22,inactive: -0.406
10,GCUAUAUCUAAAGCUAUUCTT against Sgpp1,active: 0.574
11,GCAGGUAGCUAAAGAAAACTT against Rangnrf,inactive: -0.243
12,GGUAUUUCGAAACCUCCGUTT against H2-Q10,inactive: 1.27
13,GGCUCAUCAUUGAGAACAUTT against Zmym1,inactive: -0.404
14,GCGAUCACAGACAUCAUUGTT against Rabgef1,inactive: -0.0321
15,GGAGUUAAGAAAGAAAACATT against 1700023B02Rik,inactive: 0.354
16,GGUCUUUCAUUGAAGCUGATT against Il1b,inactive: 1.54
17,GGAAUUAAACCAUUUCAGUTT against 6030404E16Rik,inactive: -0.0932
18,GGAGAUGGGUUUAAGCCCUTT against Scube3,inactive: -0.254
19,GCCUGGGUAUGAAGAAAUUTT against Pla2g2f,inactive: -0.337
20,GGCUAAAUUAUUGCGCAAATT against C1qbp,inactive: -0.998
21,GGAGCUGUCAUUUAAGAAATT against 9430041O17Rik,inactive: 0.957
22,UUUAAGGAUCUCGUGCGAATT against Olfr809,inactive: -0.81
23,GGCCAUCAAGGUCUUUUCUTT against ORF19,inactive: -0.164
24,GGGAGGAUCAAGGCCUUCUTT against Olfr62,inactive: 0.928
25,GCAGUGGUUAUCCAAGUAUTT against Chrm1,inactive: -2
26,GGUUCUUAGGAGUUAACUCTT against Klf16,inactive: 0.459

row,Sequence,z-score
1,GGUAUACGUCUGAUAAUGATT against Calmbp1,inactive: 0.883
2,GCUGCACGAUCGGAAUGGUTT against Gm1395,inactive: -2.15
3,GGCAUAUGACCAUCAUAAUTT against Porcn,inactive: 0.147
4,CGAAUUAUAGCAUUCAGCCTT against Map3k3,inactive: 0.789
5,GGAUAUUUGGAGAGAGAGGTT against Lrrn2,inactive: 0.112
6,CGACUACCUGGAUAUCUACTT against Efna2,inactive: 0.842
7,GGCUGUGGAACACAUCAACTT against Eno3,inactive: 0.441
8,GUAUGAACACGCAGCAAACTT against Mmd2,inactive: -1.93
9,GGCAUGAGAAUUGGUCCAGTT against Ehd4,inactive: -2.32
10,GGGUCUACGAAGAAUAGGGTT against Cxcl14,inactive: 0.248
11,CCGGCAUUACCGAUCGUAATT against Tacstd1,inactive: -0.451
12,GGGACCUCCAUCGUAUUUGTT against Slc29a4,inactive: 0.15
13,GGAAAGUCUUGAUGAGUUGTT against C230043N17Rik,inactive: 0.408
14,GGUCCGAUAUCUGAGUCUCTT against Hic1,inactive: -0.221
15,GCACUCAGCUAGGUGAAGATT against Hnrpul1,inactive: -1.79
16,GGGUAUCAUUGUUUACCGATT against 1700034J06Rik,inactive: -0.431
17,GGUGAACAAUCUUUUCCAGTT against 4930412F15Rik,inactive: -0.16
18,GGCACCACUAAUCAUCAGATT against Pbef1,inactive: 0.218
19,GGGUGUGUUUUUAUGUGUUTT against Lcp2,inactive: -0.943
20,GGAUGGUAUUCCUAACCAGTT against Ccrk,inactive: -0.534
21,GGUUGUUUUGCUUGUUGUATT against Tgfb1i4,inactive: 1.16
22,GGUCCGGAACAAAUUAGAUTT against Eif2ak1,inactive: 0.546
23,CCUGUUAAUGACACCCACGTT against Slc37a2,inactive: -0.529
24,GCUUUGUUGUACGACAACATT against Agr2,inactive: 0.315
25,GGACCUGUAUUCACACCUUTT against 2700038L12Rik,inactive: 1.84
26,GGCAGAAGAGUGGUACAAGTT against Dok4,inactive: 0.586

# Shown with tabs: part of the list above
row	Sequence	z-score
1	GGUAUACGUCUGAUAAUGATT against Calmbp1	inactive: 0.883
2	GCUGCACGAUCGGAAUGGUTT against Gm1395	inactive: -2.15
10	GGGUCUACGAAGAAUAGGGTT against Cxcl14	inactive: 0.248
14	GGUCCGAUAUCUGAGUCUCTT against Hic1	inactive: -0.221
18	GGCACCACUAAUCAUCAGATT against Pbef1	inactive: 0.218
22	GGUCCGGAACAAAUUAGAUTT against Eif2ak1	inactive: 0.546

# Next part:

row,Sequence,z-score
1,GAGACUAAGCAGUGGAAGATT against Krtap21-1,inactive: -0.468
2,GGUGCAAGUUUUGGUGGGATT against 4833442J19Rik,inactive: -1.92
3,GGGAAUGUAAACAAAGUCATT against Iqgap1,inactive: 0.788
4,GGUGACUGACAACCAGACATT against Dkkl1,inactive: -0.172
5,GGGAGUAAUGUUCUAAUCATT against Msh4,inactive: 0.579
6,AACUUUCUCAUUCUUACUGTT against Olfr961,inactive: -1.05
7,CCUUUCAUCACAAAGAAUGTT against 2010106G01Rik,inactive: 0.16
8,GGCUAAUAAGUUCAAUCAATT against Wisp1,inactive: 2.45
9,GGAACCCAAACUGAAGUAUTT against Vps41,inactive: -0.191
10,GGAACUUCAGUGUCGUCUCTT against Olfr285,inactive: -0.317
11,GGAAUAUCCAGUAUUGAUUTT against Ly78,inactive: -0.432
12,GCCAGUUCGAUAUAUCUUCTT against Gstz1,inactive: -0.478
13,CCAAAAUGUAUACCUACUUTT against Car4,inactive: -0.638
14,GCCCAACCCAUCAUAGAUCTT against 2410104I19Rik,inactive: 0.881
15,CCAUAGUAUUGAUGUCUGCTT against Cml2,inactive: 0.819
16,GGAGACAAAGCAUUAUCUATT against Usp33,inactive: -0.127
17,GCAGGUCUAAUAAUGGUCATT against Syt12,inactive: 1.38
18,GCACAAAUCUCUAAAGAUCTT against Cxcr6,inactive: 0.372
19,GGUGAUGGACGGAAGAAGATT against Pigc,inactive: 0.0655
20,GGUAUUAUGACUGUAAAGGTT against Pp11r,inactive: 0.379
21,GGAAGACAACUGAACAUUUTT against Ralgds,inactive: -1.09
22,GGCCAAGCAUGUUUUGUCATT against 4933440J22Rik,inactive: 0.746
23,GCAUAUGAUGCCUUCCUUCTT against 6430510M02Rik,inactive: 0.183
24,GGAAGCUCUUAAAAGGUUGTT against 3110052N05Rik,inactive: -1.3
25,CCACAUUUCUCUAACGAACTT against Prkra,inactive: -0.359
26,GGACCCUCUAGAUGACCAATT against Trem2,inactive: 0.658
